From article PMC12856970 (Clinical Pharmacology in Drug Development, 2025)

Assays:
[1] = system: cytochrome P450 3A4 (CYP3A4); settings: cited from earlier work
[2] = system: P‐glycoprotein (P‐gp); settings: liver; cited from earlier work
[3] = Phase 1 DDI study: plasma PK of atorvastatin and its metabolites after atorvastatin alone or with steady-state asciminib (LC-MS/MS, non-compartmental); settings: for Cmax: human
[4] = atorvastatin 20 mg single dose + asciminib 80 mg QD at steady state (day 9), plasma
[5] = atorvastatin 20 mg single oral dose alone (day 1), plasma
[6] = atorvastatin + asciminib 80 mg QD steady state, linear mixed-effects model, back-transformed
[7] = atorvastatin + steady-state asciminib 80 mg QD versus atorvastatin alone
[8] = atorvastatin alone, linear mixed-effects model, back-transformed

AUCinf, Gmean (GCV%) [3, 4]: 39.2 (39.6) ng x h/mL | AUCinf, Mean (SD) [3, 4]: 42.0 (16.4) ng x h/mL | AUCinf, Median (min, max) [3, 4]: 40.6 (20.4, 82.6) ng x h/mL | AUClast, Gmean (GCV%) [3, 4]: 36.8 (40.7) ng x h/mL | AUClast, Mean (SD) [3, 4]: 39.6 (15.8) ng x h/mL | AUClast, Median (min, max) [3, 4]: 38.8 (18.7, 80.0) ng x h/mL | Cmax, Gmean (GCV%) [3, 4]: 6.45 (66.2) ng/mL | AUCinf, Gmean (GCV%) [3, 5]: 33.9 (38.0) ng x h/mL | AUCinf, Mean (SD) [3, 5]: 36.3 (15.4) ng x h/mL | AUCinf, Median (min, max) [3, 5]: 34.4 (19.2, 81.6) ng x h/mL | AUClast, Gmean (GCV%) [3, 5]: 31.5 (40.1) ng x h/mL | AUClast, Mean (SD) [3, 5]: 34.1 (15.5) ng x h/mL | AUClast, Median (min, max) [3, 5]: 30.6 (18.0, 80.1) ng x h/mL | AUCinf, Adjusted Gmean [3, 6]: 38.8 ng x h/mL | AUClast, Adjusted Gmean [3, 6]: 36.5 ng x h/mL | Time post-dose at which mean Cmax was observed (mean concentration-time profile) ([3]; atorvastatin + asciminib at steady state): 0.5 h | Increase of adjusted Gmean of AUCinf by asciminib [3, 7]: 14% | Increase of adjusted Gmean of AUClast by asciminib [3, 7]: 16% | Increase of adjusted Gmean of Cmax by asciminib [3, 7]: 24% | Time post-dose at which mean Cmax was observed (mean concentration-time profile) ([3]; atorvastatin alone): 1 h | AUCinf, Adjusted Gmean [3, 8]: 33.9 ng x h/mL | AUClast, Adjusted Gmean [3, 8]: 31.5 ng x h/mL | Cmax ([3]; plasma, oral, 20 mg, Adjusted Gmean, atorvastatin alone, linear mixed-effects model, back-transformed): 5.29 ng/mL | Cmax ([3]; plasma, oral, Median (min, max), atorvastatin 20 mg single dose + asciminib 80 mg QD at steady state (day 9), plasma): 7.71 ng/mL | Cmax ([3]; plasma, po, 20 mg, Gmean (GCV%), atorvastatin 20 mg single oral dose alone (day 1), plasma): 5.29 ng/mL | Cmax ([3]; plasma, po, 20 mg, Mean (SD), atorvastatin 20 mg single oral dose alone (day 1), plasma): 5.84 ng/mL | Cmax ([3]; plasma, po, 20 mg, Median (min, max), atorvastatin 20 mg single oral dose alone (day 1), plasma): 4.66 ng/mL
SMILES: CC(C)c1c(C(=O)Nc2ccccc2)c(-c2ccccc2)c(-c2ccc(F)cc2)n1CC[C@@H](O)C[C@@H](O)CC(=O)O [Atorvastatin, reference compound]
Fraction metabolized by CYP3A4 [1]: Over 85% | Contribution of P‐gp to total efflux [2]: 66%
